Only a part is listed here, and it is no random draw. At the low end of the ranking the order means little.
molecular target: ETV6 (UniProt P41212); experiment: DAPPL (digital affinity profiling via proximity ligation, sequencing); conditions: 10 mM Tris-HCl pH 7.5, 50 mM NaCl, 1 mM DTT, 4% glycerol, room temperature, 30 min; GST-TFs on glutathione beads, 16-mer random dsDNA library, 0.1% …; high values mean tight binding; double strand, one strand shown; scale: fold enrichment (6-mer frequency, TF over GST control)

By UniProt entry, the sequences of proteins in these tests, tags left out. Where a name states a change or a piece, a line headed by the entry shows the natural chain unless it says otherwise.
UniProt P41212: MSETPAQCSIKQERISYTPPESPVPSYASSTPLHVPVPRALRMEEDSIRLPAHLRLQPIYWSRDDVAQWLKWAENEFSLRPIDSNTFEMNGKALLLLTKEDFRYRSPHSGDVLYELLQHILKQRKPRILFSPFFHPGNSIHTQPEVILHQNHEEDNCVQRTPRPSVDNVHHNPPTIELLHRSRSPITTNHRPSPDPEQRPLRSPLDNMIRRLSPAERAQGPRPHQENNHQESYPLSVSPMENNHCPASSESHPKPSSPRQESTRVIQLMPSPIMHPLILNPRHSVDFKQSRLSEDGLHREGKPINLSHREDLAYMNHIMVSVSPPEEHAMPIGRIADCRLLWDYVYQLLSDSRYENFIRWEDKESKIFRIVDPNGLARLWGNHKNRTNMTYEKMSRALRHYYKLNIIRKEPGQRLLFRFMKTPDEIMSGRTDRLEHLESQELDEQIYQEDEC

Row | Sequence | binding signal
1 | CATTTA | 1.13
2 | GCCAAT | 0.997
3 | CCGATG | 0.965
4 | TTTTTA | 1.33
5 | CGATTG | 1.22
6 | CATCTG | 1.11
7 | AAATTC | 1.31
8 | TATTAT | 1.3
9 | TTCCCC | 1.73
10 | TTATGT | 1.43
11 | ATCAAT | 1.07
12 | AAACCA | 1.21
13 | ATGTTC | 1.18
14 | AAATCC | 1.6
15 | AAAAAA | 1.35
16 | GTTTCC | 3.24
17 | CTCGTA | 1.2
18 | TCCCGC | 1.5
19 | GGAAAC | 1.66
20 | CTCAAT | 1.23

Row | Sequence | binding signal
21 | AGATCC | 1.1
22 | ATTTCA | 1.27
23 | TCGCGC | 0.973
24 | CCATTT | 1.34
25 | TGGTTA | 1.1
26 | CTTGGT | 1.44
27 | AGCAGC | 1.04
28 | ATACGT | 1.14
29 | TGGTAG | 0.961
30 | TCGCCT | 1.32
31 | TTCACT | 1.23
32 | CCTATC | 1.12
33 | CTCCTG | 1.59
34 | TAAGAT | 1.28
35 | CTGGAT | 1.21
36 | CGATTC | 1.11
37 | TAAATA | 1.32
38 | TCCCCA | 1.26
39 | AAATTA | 1.25

Some of the entries so far, field by field.
AGATCC
  binding signal = 1.1
ATTTCA
  binding signal = 1.27
